Measured values from patent publication US20220340642A1.
Results are given in words; binding and its absence hold for the method and conditions named. Some entries that bind do so weakly or less than the wild type. Sequences can lack the tags named with a protein.

The chains behind the UniProt entries cited, without tags or fusion partners. Where a name states a change or a piece, a line headed by the entry shows the natural chain unless it says otherwise.
UniProt P41047: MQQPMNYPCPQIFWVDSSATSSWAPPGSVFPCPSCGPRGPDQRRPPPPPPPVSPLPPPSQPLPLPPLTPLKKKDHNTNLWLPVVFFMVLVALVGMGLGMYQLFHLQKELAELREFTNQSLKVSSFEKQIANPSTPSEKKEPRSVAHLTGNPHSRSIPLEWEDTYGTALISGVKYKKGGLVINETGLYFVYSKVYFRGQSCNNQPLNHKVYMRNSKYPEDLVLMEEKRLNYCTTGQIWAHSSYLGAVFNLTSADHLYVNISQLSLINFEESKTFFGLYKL
UniProt P48023: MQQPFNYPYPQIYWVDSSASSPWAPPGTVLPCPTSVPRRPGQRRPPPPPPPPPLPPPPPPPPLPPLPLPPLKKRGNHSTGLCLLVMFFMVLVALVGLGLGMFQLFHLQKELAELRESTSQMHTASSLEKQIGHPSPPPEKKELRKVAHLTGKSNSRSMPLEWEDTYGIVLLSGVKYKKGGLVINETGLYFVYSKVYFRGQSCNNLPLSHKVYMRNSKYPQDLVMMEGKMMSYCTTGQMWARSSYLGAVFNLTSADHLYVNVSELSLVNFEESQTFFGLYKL
UniProt Q5UBV8: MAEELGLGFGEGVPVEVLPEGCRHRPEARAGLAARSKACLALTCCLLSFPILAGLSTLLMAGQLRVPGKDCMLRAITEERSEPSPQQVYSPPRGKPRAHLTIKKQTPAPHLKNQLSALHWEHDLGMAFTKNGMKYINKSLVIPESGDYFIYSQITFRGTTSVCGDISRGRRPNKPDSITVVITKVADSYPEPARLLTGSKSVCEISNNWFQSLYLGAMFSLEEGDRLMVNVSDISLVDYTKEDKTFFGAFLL
UniProt P63308: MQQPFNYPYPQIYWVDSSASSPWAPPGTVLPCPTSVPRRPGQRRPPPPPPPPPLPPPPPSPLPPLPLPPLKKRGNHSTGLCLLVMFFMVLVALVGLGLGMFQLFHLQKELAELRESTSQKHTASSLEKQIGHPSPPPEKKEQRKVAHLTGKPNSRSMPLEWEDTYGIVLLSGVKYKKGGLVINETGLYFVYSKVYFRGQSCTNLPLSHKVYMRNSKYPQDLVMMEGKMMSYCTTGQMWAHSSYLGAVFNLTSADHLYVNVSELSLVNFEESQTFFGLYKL

Key:
Assay in all cases: SPR, binder captured
[1] = target: soluble recombinant of cynomolgus monkey LIGHT (His10, GS linker, Asp74-Val240) (cynomolgus monkey)
[2] = target: soluble recombinant of mouse FasL (His6, Pro132-Leu279) (mouse) (UniProt P41047)
[3] = target: soluble recombinant of human LIGHT (His10, GS linker, Asp74-Val240) (human)
[4] = target: soluble recombinant of human FasL (His6, Pro134-Leu281) (human) (UniProt P48023)
[5] = target: T1, soluble recombinant of mouse TL1A (His6, GS linker, Ile94-Leu270) (mouse) (UniProt Q5UBV8)
T1 sequence: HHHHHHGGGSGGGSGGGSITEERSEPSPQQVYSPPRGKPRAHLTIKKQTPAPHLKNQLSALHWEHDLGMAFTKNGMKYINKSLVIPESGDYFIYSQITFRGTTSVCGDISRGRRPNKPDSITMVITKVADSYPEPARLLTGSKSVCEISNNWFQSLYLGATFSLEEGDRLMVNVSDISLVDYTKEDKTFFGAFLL

[6] = target: soluble recombinant of cynomolgus monkey FasL (His6, Pro133-Leu280) (cynomolgus monkey) (UniProt P63308)
[7] = target: T2, soluble recombinant of cynomolgus monkey TL1A (His6, GS linker, Leu72-Leu251) (cynomolgus monkey)
T2 sequence: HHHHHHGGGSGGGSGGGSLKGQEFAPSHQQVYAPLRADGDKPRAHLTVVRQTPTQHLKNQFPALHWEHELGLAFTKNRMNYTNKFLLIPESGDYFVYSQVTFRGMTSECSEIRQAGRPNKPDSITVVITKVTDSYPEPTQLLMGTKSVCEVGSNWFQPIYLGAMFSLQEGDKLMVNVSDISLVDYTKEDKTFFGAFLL

binding [1]: binds
binding [2]: binds
binding [3]: binds
binding [4]: binds
binding [5]: binds
binding [6]: binds
binding [7]: binds
B1: DcR3 FL-Fc (R&D Systems, Inc.) (Fc fusion, not shown: a dimerising Fc or GST)
chain: VAETPTYPWRDAETGERLVCAQCPPGTFVQRPCRRDSPTTCGPCPPRHYTQFWNYLERCRYCNVLCGEREEEARACHATHNRACRCRTGFFAHAGFCLEHASCPPGAGVIAPGTPSQNTQCQPCPPGTFSASSSSSEQCQPHRNCTALGLALNVPGSSSHDTLCTSCTGFPLSTRVPGAEECERAVIDFVAFQDISIKRLQRLLQALEAPEGWGPTPRAGRAALQLKLRRRLTELLGAQDGALLVRLLQALRVARMPGLERSVRERFLPVHIEGRMD
